This note sets out measurements from patent US20060135415A1, “Immunomodulation and effect on cell processes relating to serotonin family receptors and the blood-brain barrier” (priority 2002, published 2006).

SMILES strings stand for the structures.

The subject of this assay is RPMI 8226 multiple myeloma cells. Briefly: RPMI 8226 cell viability and proliferation (trypan blue, MTT, 3H-thymidine). Particulars: Homo sapiens, 0.1-50 μM (FIGS. 31, 32), read-out: EC50, inhibition of proliferation of RPMI-8226 cells. In kind it is cell-based. On the procedure: The human plasmacytoma (multiple myeloma) cell line, RPMI 8226 (American Type Culture Collection, Manassas, Va.), was cultured in RPMI 1640 supplemented with 10 mM HEPES, 1 mM sodium pyruvate, 4.5 g/L glucose, 1.5 g/L bicarbonate and 20% FBS (non-heat inactivated).
Cell proliferation was assayed by three methods—Trypan Blue Exclusion was used to quantify the number of viable cells in culture; 3-(4,5-dimethylthiazol-2-yl)-2,5-diphenyl tetrazolium bromide (MTT) reduction was used to assay mitochondrial activity (and thus cell viability); and ^3H-Thymidine uptake was employed to assay for active DNA synthesis.
Three separate indicators of cell proliferation were employed to study the effects of 5-HT receptor modulating agents on the human multiple myeloma cell line, RPMI 8226. Cells were plated at 4 separate densities and were treated with LY53587 (an antagonist of the 5-HT2A/2B/2C receptors) at a range of concentrations. The exclusion of trypan blue dye was used as an indicator of cell viability. Cell numbers were then plotted against the concentration of drug added.
MTT reduction was also used as an indicator of cell viability (more specifically, mitochondrial activity). Absorbance values at OD570 were then plotted against drug concentration. […]

With `OCCN1CCN(CCCN2c3ccccc3Sc3ccc(C(F)(F)F)cc32)CC1` [Fluphenazine], the EC50 is 5 to 10 µM.
